According to patent publication US20220389359A1, “USE OF PERFLUORO-N-OCTANE FOR PIEZO-MEDIATED INTRACYTOPLASMIC SPERM INJECTION” (priority 2019, published 2022):

Experiment: Suitability of fluorinated compounds as operating liquid for Piezo-ICSI
Conditions: compared to commercially available hydrofluoroether control

| Structure (SMILES) | Evaluation of suitability for use as operating liquid for Piezo-ICSI | Evaluation of suitability for use as operating liquid for Piezo-ICSI (listed as Perfluoro-n-octane) |
| --- | --- | --- |
| FC(F)(F)C(F)(F)C(F)(F)C(F)(F)C(F)(F)C(F)(F)C(F)(F)C(F)(F)F [perfluoro-n-octane, 1,1,1,2,2,3,3,4,4,5,5,6,6,7,7,8,8,8-octadecafluorooctane] | as suitable for use as operating liquid for piezo-ICSI as the standard hydrofluoroether operating liquid | Good-Loading of perfluoro-n-octane |
| FC1(F)C(F)(F)C(F)(F)C2(F)C(F)(F)C(F)(F)C(F)(F)C(F)(F)C2(F)C1(F)F (stereo not shown) [Perfluorodecalin, perfluorodecalin, reference compound] | Poor-Due to its high viscosity, it took |  |
| FC1(F)C(F)(F)C(F)(F)C2(F)C(F)(C1(F)F)C(F)(F)C(F)(F)C1(F)C(F)(F)C(F)(F)C(F)(F)C(F)(F)C12F (stereo not shown) [Perfluoroperhydrophenanthrene, perfluoroperhydrophenanthrene, reference compound] | Unusable-The viscosity of |  |
